Chains of the proteins cited; added tags and fusions are not shown. Lines headed by an entry give the natural chain unless they say otherwise; changes in a name come on top.
UniProt P18054: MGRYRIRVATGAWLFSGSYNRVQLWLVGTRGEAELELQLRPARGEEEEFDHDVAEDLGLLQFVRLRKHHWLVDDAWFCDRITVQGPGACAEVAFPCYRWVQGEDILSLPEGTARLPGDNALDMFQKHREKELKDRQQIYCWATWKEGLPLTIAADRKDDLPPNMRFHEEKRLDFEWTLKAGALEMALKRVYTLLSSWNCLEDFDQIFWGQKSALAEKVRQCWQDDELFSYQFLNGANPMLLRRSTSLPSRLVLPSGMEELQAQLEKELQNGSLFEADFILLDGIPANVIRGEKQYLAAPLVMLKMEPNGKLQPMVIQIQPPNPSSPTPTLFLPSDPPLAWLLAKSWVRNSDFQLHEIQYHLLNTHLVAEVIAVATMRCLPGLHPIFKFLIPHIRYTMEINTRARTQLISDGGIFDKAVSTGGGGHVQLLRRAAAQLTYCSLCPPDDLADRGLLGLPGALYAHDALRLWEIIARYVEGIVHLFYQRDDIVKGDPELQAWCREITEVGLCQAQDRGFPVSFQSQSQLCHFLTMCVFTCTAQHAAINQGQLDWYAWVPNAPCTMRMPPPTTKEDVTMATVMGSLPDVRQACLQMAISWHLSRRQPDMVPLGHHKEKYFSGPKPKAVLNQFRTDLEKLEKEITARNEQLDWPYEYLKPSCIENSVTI

Out of some 580,000 compounds screened, about 6,100 (1.1%) were called active. Inconclusive means that the source gave no clear call. Such entries were picked first, then a sample of the others. The call rests on the fitted dose curve; in most records, active means well fitted inhibition curve with a large enough effect; inconclusive means small, poorly fitted or top-dose-only effect, or another doubt; inactive means no such curve, though single readings can be large or run the other way. Potencies beside an inconclusive call are fits to weak or partial responses and may not hold up.
The compounds below were run against Polyunsaturated fatty acid lipoxygenase ALOX12 (Homo sapiens) (UniProt P18054) (assay: Primary qHTS assay for inhibitors of human arachidonate 12S-lipoxygenase (ALOX12): Round 2). Conditions: purified 12hLO, xylenol orange hydroperoxide absorbance; activity change, negative = inhibition: at 108 µM (top of the series) unless noted.
Method in brief: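 Purified human 12hLO at 150 nM in 25 mM Hepes, 0.01% Triton X-100, pH 7.0, preincubated 15 min at room temperature with compound. Reaction started with 40 uM arachidonic acid, 30 min at room temperature. Hydroperoxide measured by Fe-xylenol orange, 573/405 nm absorbance ratio.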
For `CN(C)/C=C1/Oc2c(ccc3ccccc23)C1=O`, the Potency was “inactive”. With `Cc1c(NC(=O)c2ccc(C(C)(C)C)cc2)cccc1-c1cn(C)c(=O)c(Nc2ccc(C(=O)N3CCOCC3)cc2)n1` the Potency was inconclusive: 15.3 µM [inhibitor, partial curve, poor fit]. `CCOC(=O)c1c(NC(=O)COC(=O)CCOc2cc(C)ccc2C)sc(C(=O)N(C)C)c1C` was tested, and the Potency was inconclusive: 79.4 µM [inhibitor, single point]. For `CCCCOc1ccc(C2C(C(=O)c3ccc(C)o3)=C(O)C(=O)N2Cc2ccco2)cc1` (stereo not given), the Potency was inconclusive: 2.82 µM [inhibitor, full curve, poor fit]. With `Cc1ccc(COc2ccc(/C=N/O)cc2)cc1` the Potency was “inactive”. For `CC(C)(C)c1ccc(Oc2nc3ccccn3c(=O)c2/C=C(\C#N)c2nc3ccccc3s2)cc1`, the Potency was inconclusive: 17.8 µM [inhibitor, partial curve]. `O=c1c(Cl)c(N2CCN(Cc3nnc(-c4ccccc4)o3)CC2)cnn1-c1ccccc1` was tested, and the Potency was “inactive”. With `COCC(=O)N[C@@H]1CN(Cc2ccc(F)cc2Cl)C[C@H]1CO` the Potency was inconclusive: 31.6 µM [inhibitor, full curve, poor fit]. For `CCc1ccc(NC(=O)CC2C(=O)N(c3ccc(C)cc3)C(=O)N2C2CCCC2)cc1` (stereo not given), the Potency was “inactive”. For `C[C@@H](c1ncncc1F)[C@](O)(Cn1cncn1)c1ccc(F)cc1F`, the Potency was inconclusive: 24.3 µM [inhibitor, partial curve, poor fit]. With `CC(=O)Nc1ccccc1NC(=O)CCC1CCCC1` the Potency was “inactive”. For `CCOC(=O)c1sc(NC(=O)Nc2ccccc2Cl)cc1C`, the Potency was inconclusive: 44.7 µM [inhibitor, full curve, poor fit]. `CSCCC(=O)Nc1nc(-c2ccccn2)cs1` was tested, and the Potency was “inactive”. In the case of `CC1CCN(c2ccccc2NC(=S)NC(=O)c2ccco2)CC1`, the Potency is reported as inconclusive: 44.7 µM [inhibitor, single point]. `Cc1ccc(NC(=O)CN2C(=O)S/C(=C/c3ccc(-c4cc(C(=O)O)ccc4C)o3)C2=O)cc1C` was tested, and the Potency was inconclusive: 15.8 µM [inhibitor, partial curve, poor fit]. With `Cc1nn(C)c2nc(NNC(=O)Nc3cc(Cl)nc(Cl)c3)cc(C(C)C)c12` the Potency was inconclusive: 20 µM [inhibitor, partial curve, poor fit]. With `Cc1cc(=O)n(CC(=O)Nc2cccc(Cl)c2)c(N2CCc3ccccc3C2)n1` the Potency was inconclusive: 7.94 µM [inhibitor, full curve, poor fit]. In the case of `O=C(COC(=O)CC1CC2CCC1C2)NC(=O)NCc1ccco1` (stereo not given), the Potency is reported as “inactive”. In the case of `Cc1ccc(OCc2nc(-c3cc(C)nc4ccccc34)no2)c(C)c1`, the Potency is reported as “inactive”. `CC(=O)c1ccc(N2CCN(C(=O)c3cc4c(-c5ccc(Cl)cc5)nn(C)c4s3)CC2)cc1` was tested, and the Potency was inconclusive: 126 µM [inhibitor, single point]. With `CC(C)(C)c1ccc(C(=O)Nc2nc3c(s2)C[C@@H]2[C@](C)(CO)[C@H](O)CC[C@@]2(C)[C@@H]3CC(=O)N2CCC(C(N)=O)CC2)cc1` the Potency was inconclusive: 31.6 µM [inhibitor, full curve]. `CC1=NN(C(N)=S)C(=O)C1N=Nc1c(Br)cc(Br)cc1Br` (stereo not given) was tested, and the Potency was inconclusive: 31.6 µM [inhibitor, single point]. For `Clc1ccc2c(N/N=C/c3ccccc3Br)ccnc2c1`, the Potency was inconclusive: 100 µM [inhibitor, single point]. For `COC(=O)c1ccc(-c2ccc(CNCc3ccco3)o2)cc1`, the Potency was “inactive”. In the case of `N#C/C(=C\c1ccc(OC(=O)c2ccccn2)cc1)C(N)=O`, the Potency is reported as “inactive”. `CCCN(CC(=O)Nc1ccccc1C)C(=O)Cc1coc2cc(C)ccc12` was tested, and the Potency was inconclusive: 63.1 µM [inhibitor, partial curve, poor fit]. In the case of `Fc1ccc(Nc2nc3nonc3nc2N2CCC(Cc3ccccc3)CC2)cc1`, the Potency is reported as “inactive”. In the case of `C=CCNC(=S)Nc1ccccc1F`, the Potency is reported as inconclusive: 50.1 µM [inhibitor, single point]. In the case of `O=C(Nc1ccc(S(=O)(=O)N2CCOCC2)cc1)c1ccc2ncsc2c1`, the Potency is reported as inconclusive: 39.8 µM [inhibitor, partial curve]. For `CCOc1ccc(OCCOC(=O)CCC(=O)c2ccc(F)cc2)cc1`, the Potency was “inactive”. For `CN(C)c1ccnc(Oc2ccccc2)c1C#N`, the Potency was “inactive”. `CN(C)S(=O)(=O)c1cccc(CNCC2COc3ccccc3O2)c1` (stereo not given) was tested, and the Potency was inconclusive: 0.562 µM [inhibitor, full curve, poor fit]. In the case of `CC(OC(=O)CC1CCCCC1)C(=O)Nc1ccc(F)cc1` (stereo not given), the Potency is reported as inconclusive: 79.4 µM [inhibitor, single point]. In the case of `S=c1[nH]nc(-c2ccccn2)n1/N=C/c1cccc2ccccc12`, the Potency is reported as active: 5.62 µM. `Cc1ccc(NC(=O)CSc2nc3ccccc3n2CCC#N)cc1C` was tested, and the Potency was “inactive”. `CS(=O)(=O)Nc1cccc(-c2nc(NC3CC3)c3ccccc3n2)c1` was tested, and the Potency was inconclusive: 6.31 µM [inhibitor, full curve, poor fit]. With `Cc1nn(-c2ccccc2)c(Cl)c1C1C(C#N)=C(N)OC2=C1C(=O)CCC2` (stereo not given) the Potency was inconclusive: 50.1 µM [inhibitor, single point]. For `O=C1COc2ccc(-c3cc(-c4ccccc4)c4c(n3)-c3ccccc3OC4)cc2N1`, the Potency was “inactive”. With `CC(=O)N(Cc1cccnc1)c1cccc(-c2nc3ccccc3s2)c1` the Potency was “inactive”. With `COc1ccc(Nc2nnc(SCC(=O)N3CC(=O)Nc4ccccc43)s2)cc1` the Potency was inconclusive: 50.1 µM [inhibitor, partial curve, poor fit]. In the case of `CN(C)S(=O)(=O)c1cccc(NC(=O)/C=C/c2ccc(S(=O)(=O)N3CCOCC3)cc2)c1`, the Potency is reported as “inactive”. In the case of `Cc1ccc(-c2n[nH]c(=O)c3ccccc23)cc1S(=O)(=O)NC(C)C`, the Potency is reported as inconclusive: 89.1 µM [inhibitor, single point]. In the case of `CCOc1cc(/C=C2\C(=O)NN(c3ccccc3)C2=O)cc([N+](=O)[O-])c1O`, the Potency is reported as inconclusive: 50.1 µM [inhibitor, partial curve, poor fit]. `O=S(=O)(c1ccc(Cl)cc1)N(CCCN1CCOCC1)Cc1cccs1` was tested, and the Potency was inconclusive: 3.98 µM [inhibitor, full curve, poor fit]. `O=C(O)c1cnc(N2CCCCC2)nc1-c1ccccc1` was tested, and the Potency was inconclusive: 15.8 µM [inhibitor, partial curve, poor fit]. `Cc1ccc2nc(-c3ccccc3)cc(C(=O)NCC(c3ccco3)N(C)C)c2c1` (stereo not given) was tested, and the Potency was inconclusive: 56.2 µM [inhibitor, partial curve, poor fit]. For `CCNC(=S)Nc1scc(-c2ccccc2)c1C(=O)OCC`, the Potency was inconclusive: 50.1 µM [inhibitor, partial curve, poor fit]. In the case of `Cn1ccnc1C(=O)N1C[C@@H](COCC2CC2)[C@H](c2ccncc2)C1`, the Potency is reported as inconclusive: 28.2 µM [inhibitor, full curve, poor fit]. `CN(C)c1ccc(-c2nc(-c3cccs3)c(-c3cccs3)[nH]2)cc1` was tested, and the Potency was inconclusive: 7.08 µM [inhibitor, full curve, poor fit]. In the case of `Cc1ccc(-c2csc(Nc3ccc4c(c3)OCO4)n2)cc1C`, the Potency is reported as inconclusive: 1 µM [inhibitor, full curve, poor fit]. In the case of `O=C(O)Cc1sc(-c2ccc(Cl)cc2)nc1-c1ccccc1`, the Potency is reported as “inactive”. With `CN[C@@H](C)[C@H]1[C@H](O)C[C@@]2(C)[C@@H]3CC[C@H]4C(C)(C)[C@@H](NC)CC[C@@]45C[C@@]35CC[C@]12C` the Potency was inconclusive: 24.3 µM [inhibitor, partial curve]. With `Cc1ccc(C(=O)c2ccccc2C(=O)OCc2ccc(Cl)cc2Cl)cc1` the Potency was inconclusive: 7.94 µM [inhibitor, full curve, poor fit]. In the case of `CCCn1c(SCC(O)c2ccccc2)nc2ccccc21` (stereo not given), the Potency is reported as inconclusive: 28.2 µM [inhibitor, single point]. With `Cn1c(-c2ccccc2)c(C#Cc2ccc(N)cc2)c2ccccc21` the Potency was inconclusive: 44.7 µM [inhibitor, partial curve, poor fit]. With `CC1=CC(C)C(CN(CCC[N+](C)(C)C)C(=O)Nc2ccccc2)C(C)C1` (stereo not given) the Potency was inconclusive: 7.94 µM [inhibitor, full curve, poor fit]. `O=C(/C=C/c1ccco1)N1CCN(S(=O)(=O)/C=C/c2ccccc2)CC1` was tested, and the Potency was inconclusive: 39.8 µM [inhibitor, partial curve, poor fit]. In the case of `Cc1ccc(-c2noc(-c3ccccc3NC(=O)C3CC(=O)N(c4ccc(C)cc4)C3)n2)cc1` (stereo not given), the Potency is reported as inconclusive: 56.2 µM [inhibitor, partial curve, poor fit]. For `Cc1ccc(S(=O)(=O)CCC(=O)OCc2nnc(-c3ccc([N+](=O)[O-])cc3)o2)cc1`, the Potency was inconclusive: 89.1 µM [inhibitor, single point]. With `COc1cc(-c2nc(=S)[nH][nH]2)cc(OC)c1OC` the Potency was inconclusive: 44.7 µM [inhibitor, partial curve]. In the case of `O=C1NCc2ccccc2CC12CCN(Cc1cc(O)cc(O)c1)CC2`, the Potency is reported as inconclusive: 15.8 µM [inhibitor, full curve]. With `O=C(CNS(=O)(=O)c1ccc(Br)cc1Cl)OCC(=O)c1ccc[nH]1` the activity change, negative = inhibition was inconclusive: -31.6% [inhibitor]. For `Cc1ccc(CNC(=O)[C@]2(C)CCC[C@@]3(C)C4CC[C@@]5(C)C[C@]4(CCC32)CC5=O)cc1` (stereo not given in full), the Potency was “inactive”. With `CCOc1ccc(N=Nc2c(C)[nH]n(-c3ccccc3)c2=O)cc1` the Potency was inconclusive: 141 µM [inhibitor, single point]. `CCN(CC)CCCNc1oc(-c2ccccc2F)nc1C#N` was tested, and the Potency was “inactive”.

— PubChem BioAssay AID1671190 (National Center for Advancing Translational Sciences (NCATS), 2021)
On the % scale 0 is the no-effect control and ±100 the full control effect; potency means the concentration at half of the fitted maximal effect.
